# Experimental data as given in the supplement of paper PMC8728848.
# This is one part of the list.
# Assays:
# Assay in all cases: glycan array binding signal (z-score within array); higher = stronger binding
# Conditions in all cases: glycan notation: IUPAC condensed, linker removed
# Fuc(a1-2)Gal = biological target: Fuc(a1-2)Gal
# Outline: (§1)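 The Consortium for Functional Glycomics database supplied 3228 glycan arrays, of which those lacking an available protein sequence were dropped. The binding signal, a within-array Z-score, was averaged across arrays of the same protein sequence and across linkers. Negative scores can be read as non-binding.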
# Fuc(a1-2)Gal(b1-3)GalNAc = biological target: Fuc(a1-2)Gal(b1-3)GalNAc
# Outline: as §1
# [1] = biological target: Fuc(a1-2)Gal(b1-3)GalNAc(a1-3)[Fuc(a1-2)]Gal(b1-4)Glc
# Outline: as §1
# [2] = biological target: Fuc(a1-2)Gal(b1-3)GalNAc(a1-3)[Fuc(a1-2)]Gal(b1-4)GlcNAc
# Outline: as §1
# [3] = biological target: Fuc(a1-2)Gal(b1-3)GalNAc(b1-3)Gal
# Outline: as §1
# [4] = biological target: Fuc(a1-2)Gal(b1-3)GalNAc(b1-3)Gal(a1-4)Gal(b1-4)Glc
# Outline: as §1
# [5] = biological target: Fuc(a1-2)Gal(b1-3)GalNAc(b1-4)[Neu5Ac(a2-3)]Gal(b1-4)Glc
# Outline: as §1
# Fuc(a1-2)Gal(b1-3)GlcNAc = biological target: Fuc(a1-2)Gal(b1-3)GlcNAc
# Outline: as §1
# [6] = biological target: Fuc(a1-2)Gal(b1-3)GlcNAc(b1-2)Man(a1-3)[Fuc(a1-2)Gal(b1-3)GlcNAc(b1-2)Man(a1-6)]Man(b1-4)GlcNAc(b1-4)GlcNAc
# Outline: as §1
# [7] = biological target: Fuc(a1-2)Gal(b1-3)GlcNAc(b1-2)Man(a1-3)[Fuc(a1-2)Gal(b1-3)GlcNAc(b1-2)Man(a1-6)]Man(b1-4)GlcNAc(b1-4)[Fuc(a1-6)]GlcNAc
# Outline: as §1
# [8] = biological target: Fuc(a1-2)Gal(b1-3)GlcNAc(b1-3)Gal(b1-4)Glc
# Outline: as §1
# [9] = biological target: Fuc(a1-2)Gal(b1-3)GlcNAc(b1-3)GalNAc
# Outline: as §1
# [10] = biological target: Fuc(a1-2)Gal(b1-3)GlcNAc(b1-3)[Fuc(a1-3)[Gal(b1-4)]GlcNAc(b1-6)]Gal(b1-4)Glc
# Outline: as §1
# [11] = biological target: Fuc(a1-2)Gal(b1-3)GlcNAc(b1-3)[Gal(b1-4)GlcNAc(b1-6)]Gal(b1-4)Glc
# Outline: as §1
# [12] = biological target: Fuc(a1-2)Gal(b1-3)GlcNAc(b1-3)[Neu5Ac(a2-6)Gal(b1-4)GlcNAc(b1-6)]Gal(b1-4)Glc
# Outline: as §1
# [13] = biological target: Fuc(a1-2)Gal(b1-3)[Fuc(a1-4)]GlcNAc
# Outline: as §1
# [14] = biological target: Fuc(a1-2)Gal(b1-3)[Fuc(a1-4)]GlcNAc(b1-2)Man(a1-3)[Fuc(a1-2)Gal(b1-3)[Fuc(a1-4)]GlcNAc(b1-2)Man(a1-6)]Man(b1-4)GlcNAc(b1-4)GlcNAc
# Outline: as §1
# [15] = biological target: Fuc(a1-2)Gal(b1-3)[Fuc(a1-4)]GlcNAc(b1-3)[Fuc(a1-3)[Gal(b1-4)]GlcNAc(b1-6)]Gal(b1-4)Glc
# Outline: as §1
# [16] = biological target: Fuc(a1-2)Gal(b1-3)[Fuc(a1-4)]GlcNAc(b1-3)[Gal(b1-4)GlcNAc(b1-6)]Gal(b1-4)Glc
# Outline: as §1
# Fuc(a1-2)Gal(b1-4)Glc = biological target: Fuc(a1-2)Gal(b1-4)Glc
# Outline: as §1
# Fuc(a1-2)Gal(b1-4)Glc6S = biological target: Fuc(a1-2)Gal(b1-4)Glc6S
# Outline: as §1
# Fuc(a1-2)Gal(b1-4)GlcNAc = biological target: Fuc(a1-2)Gal(b1-4)GlcNAc
# Outline: as §1
# [17] = biological target: Fuc(a1-2)Gal(b1-4)GlcNAc(b1-2)Man(a1-3)[Fuc(a1-2)Gal(b1-4)GlcNAc(b1-2)Man(a1-6)]Man(b1-4)GlcNAc(b1-4)GlcNAc
# Outline: as §1
# [18] = biological target: Fuc(a1-2)Gal(b1-4)GlcNAc(b1-2)Man(a1-3)[Fuc(a1-2)Gal(b1-4)GlcNAc(b1-2)Man(a1-6)]Man(b1-4)GlcNAc(b1-4)[Fuc(a1-6)]GlcNAc
# Outline: as §1
# [19] = biological target: Fuc(a1-2)Gal(b1-4)GlcNAc(b1-2)[Fuc(a1-2)Gal(b1-4)GlcNAc(b1-4)]Man(a1-3)[Fuc(a1-2)Gal(b1-4)GlcNAc(b1-2)Man(a1-6)]Man(b1-4)GlcNAc(b1-4)GlcNAc
# Outline: as §1
# [20] = biological target: Fuc(a1-2)Gal(b1-4)GlcNAc(b1-3)Gal(b1-4)GlcNAc
# Outline: as §1
# [21] = biological target: Fuc(a1-2)Gal(b1-4)GlcNAc(b1-3)Gal(b1-4)GlcNAc(b1-3)Gal(b1-4)GlcNAc
# Outline: as §1
# [22] = biological target: Fuc(a1-2)Gal(b1-4)GlcNAc(b1-3)GalNAc
# Outline: as §1
# [23] = biological target: Fuc(a1-2)Gal(b1-4)GlcNAc(b1-3)[Fuc(a1-2)Gal(b1-4)GlcNAc(b1-6)]GalNAc
# Outline: as §1
# [24] = biological target: Fuc(a1-2)Gal(b1-4)GlcNAc6S
# Outline: as §1
# [25] = biological target: Fuc(a1-2)Gal(b1-4)[Fuc(a1-3)]GlcNAc
# Outline: as §1
# [26] = biological target: Fuc(a1-2)Gal(b1-4)[Fuc(a1-3)]GlcNAc(b1-2)Man(a1-3)[Fuc(a1-2)Gal(b1-4)[Fuc(a1-3)]GlcNAc(b1-2)Man(a1-6)]Man(b1-4)GlcNAc(b1-4)GlcNAc
# Outline: as §1
# [27] = biological target: Fuc(a1-2)Gal(b1-4)[Fuc(a1-3)]GlcNAc(b1-2)[Fuc(a1-2)Gal(b1-4)[Fuc(a1-3)]GlcNAc(b1-4)]Man(a1-3)[Fuc(a1-2)Gal(b1-4)[Fuc(a1-3)]GlcNAc(b1-2)Man(a1-6)]Man(b1-4)GlcNAc(b1-4)GlcNAc
# Outline: as §1
# [28] = biological target: Fuc(a1-2)Gal(b1-4)[Fuc(a1-3)]GlcNAc(b1-3)Gal(b1-4)[Fuc(a1-3)]GlcNAc
# Outline: as §1
# [29] = biological target: Fuc(a1-2)Gal(b1-4)[Fuc(a1-3)]GlcNAc(b1-3)Gal(b1-4)[Fuc(a1-3)]GlcNAc(b1-3)Gal(b1-4)[Fuc(a1-3)]GlcNAc
# Outline: as §1
# [30] = biological target: Fuc(a1-2)Gal(b1-4)[Fuc(a1-3)]GlcNAc(b1-3)GalNAc
# Outline: as §1
# Fuc(a1-2)Gal6S(b1-4)Glc = biological target: Fuc(a1-2)Gal6S(b1-4)Glc
# Outline: as §1
# [31] = biological target: Fuc(a1-2)Gal6S(b1-4)Glc6S
# Outline: as §1
# [32] = biological target: Fuc(a1-2)Gal6S(b1-4)GlcNAc
# Outline: as §1
# Fuc(a1-2)[Gal(a1-3)]Gal = biological target: Fuc(a1-2)[Gal(a1-3)]Gal
# Outline: as §1
# [33] = biological target: Fuc(a1-2)[Gal(a1-3)]Gal(b1-3)GalNAc
# Outline: as §1
# [34] = biological target: Fuc(a1-2)[Gal(a1-3)]Gal(b1-3)GlcNAc
# Outline: as §1
# [35] = biological target: Fuc(a1-2)[Gal(a1-3)]Gal(b1-3)GlcNAc(b1-2)Man(a1-3)[Fuc(a1-2)[Gal(a1-3)]Gal(b1-3)GlcNAc(b1-2)Man(a1-6)]Man(b1-4)GlcNAc(b1-4)GlcNAc
# Outline: as §1
# [36] = biological target: Fuc(a1-2)[Gal(a1-3)]Gal(b1-3)GlcNAc(b1-2)Man(a1-3)[Fuc(a1-2)[Gal(a1-3)]Gal(b1-3)GlcNAc(b1-2)Man(a1-6)]Man(b1-4)GlcNAc(b1-4)[Fuc(a1-6)]GlcNAc
# Outline: as §1
# [37] = biological target: Fuc(a1-2)[Gal(a1-3)]Gal(b1-3)GlcNAc(b1-3)GalNAc
# Outline: as §1
binder,measurement,setting,value
"Intelectin 1 (Homo sapiens), Q8WWA0 (protein) MNQLSFLLFLIATTRGWSTDEANTYFKEWTCSSSPSLPRSCKEIKDECPSAFDGLYFLRTENGVIYQTFCDMTSGGGGWTLVASVHENDMRGKCTVGDRWSSQQGSKAVYPEGDGNWANYNTFGSAEAATSDDYKNPGYYDIQAKDLGIWHVPNKSPMQHWRNSSLLRYRTDTGFLQTLGHNLFGIYQKYPVKYGEGKCWTDNGPVIPVVYDFGDAQKTASYYSPYGQREFTAGFVQFRVFNNERAANALCAGMRVTGCNTEHHCIGGGGYFPEASPQQCGDFSGFDWSGYGTHVGYSSSREITEAAVLLFYR",glycan array binding signal (z-score),Fuc(a1-2)Gal,2.53
same,glycan array binding signal (z-score),Fuc(a1-2)Gal(b1-3)GalNAc,-0.327
same,glycan array binding signal (z-score),[1],-0.213
same,glycan array binding signal (z-score),[2],-0.505
same,glycan array binding signal (z-score),[3],-0.951
same,glycan array binding signal (z-score),[4],0.742
same,glycan array binding signal (z-score),[5],-0.356
same,glycan array binding signal (z-score),Fuc(a1-2)Gal(b1-3)GlcNAc,0.069
same,glycan array binding signal (z-score),[6],0.043
same,glycan array binding signal (z-score),[7],-0.194
same,glycan array binding signal (z-score),[8],-0.267
same,glycan array binding signal (z-score),[9],0.22
same,glycan array binding signal (z-score),[10],0.755
same,glycan array binding signal (z-score),[11],-0.056
same,glycan array binding signal (z-score),[12],4.21
same,glycan array binding signal (z-score),[13],0.332
same,glycan array binding signal (z-score),[14],0.254
same,glycan array binding signal (z-score),[15],-0.162
same,glycan array binding signal (z-score),[16],-0.708
same,glycan array binding signal (z-score),Fuc(a1-2)Gal(b1-4)Glc,-0.58
same,glycan array binding signal (z-score),Fuc(a1-2)Gal(b1-4)Glc6S,1.1
same,glycan array binding signal (z-score),Fuc(a1-2)Gal(b1-4)GlcNAc,0.597
same,glycan array binding signal (z-score),[17],0.466
same,glycan array binding signal (z-score),[18],-0.031
same,glycan array binding signal (z-score),[19],1.21
same,glycan array binding signal (z-score),[20],-0.793
same,glycan array binding signal (z-score),[21],-0.07
same,glycan array binding signal (z-score),[22],0.21
same,glycan array binding signal (z-score),[23],-0.304
same,glycan array binding signal (z-score),[24],-0.781
same,glycan array binding signal (z-score),[25],0.924
same,glycan array binding signal (z-score),[26],1.24
same,glycan array binding signal (z-score),[27],0.518
same,glycan array binding signal (z-score),[28],0.04
same,glycan array binding signal (z-score),[29],0.276
same,glycan array binding signal (z-score),[30],1.22
same,glycan array binding signal (z-score),Fuc(a1-2)Gal6S(b1-4)Glc,-0.108
same,glycan array binding signal (z-score),[31],0.034
same,glycan array binding signal (z-score),[32],-0.383
same,glycan array binding signal (z-score),Fuc(a1-2)[Gal(a1-3)]Gal,0.16
same,glycan array binding signal (z-score),[33],0.337
same,glycan array binding signal (z-score),[34],-0.243
same,glycan array binding signal (z-score),[35],0.577
same,glycan array binding signal (z-score),[36],0.285
same,glycan array binding signal (z-score),[37],-0.336
